The record followed here is PMC5146280.

Chains of the proteins cited; added tags and fusions are not shown.
UniProt O43474: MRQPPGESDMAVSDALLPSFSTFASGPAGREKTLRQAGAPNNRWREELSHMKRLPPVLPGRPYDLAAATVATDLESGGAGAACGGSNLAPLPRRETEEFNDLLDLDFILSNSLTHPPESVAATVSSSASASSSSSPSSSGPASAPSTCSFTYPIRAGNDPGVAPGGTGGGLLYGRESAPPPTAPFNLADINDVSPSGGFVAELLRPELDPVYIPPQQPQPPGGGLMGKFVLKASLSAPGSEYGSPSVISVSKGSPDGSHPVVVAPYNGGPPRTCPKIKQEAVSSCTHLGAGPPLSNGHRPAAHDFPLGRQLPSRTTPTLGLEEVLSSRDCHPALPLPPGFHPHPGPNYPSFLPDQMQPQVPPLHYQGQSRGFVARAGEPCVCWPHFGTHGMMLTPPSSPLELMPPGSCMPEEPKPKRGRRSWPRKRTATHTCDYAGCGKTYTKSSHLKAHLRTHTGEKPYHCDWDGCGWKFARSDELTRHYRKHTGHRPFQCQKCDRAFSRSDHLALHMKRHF
UniProt O14497: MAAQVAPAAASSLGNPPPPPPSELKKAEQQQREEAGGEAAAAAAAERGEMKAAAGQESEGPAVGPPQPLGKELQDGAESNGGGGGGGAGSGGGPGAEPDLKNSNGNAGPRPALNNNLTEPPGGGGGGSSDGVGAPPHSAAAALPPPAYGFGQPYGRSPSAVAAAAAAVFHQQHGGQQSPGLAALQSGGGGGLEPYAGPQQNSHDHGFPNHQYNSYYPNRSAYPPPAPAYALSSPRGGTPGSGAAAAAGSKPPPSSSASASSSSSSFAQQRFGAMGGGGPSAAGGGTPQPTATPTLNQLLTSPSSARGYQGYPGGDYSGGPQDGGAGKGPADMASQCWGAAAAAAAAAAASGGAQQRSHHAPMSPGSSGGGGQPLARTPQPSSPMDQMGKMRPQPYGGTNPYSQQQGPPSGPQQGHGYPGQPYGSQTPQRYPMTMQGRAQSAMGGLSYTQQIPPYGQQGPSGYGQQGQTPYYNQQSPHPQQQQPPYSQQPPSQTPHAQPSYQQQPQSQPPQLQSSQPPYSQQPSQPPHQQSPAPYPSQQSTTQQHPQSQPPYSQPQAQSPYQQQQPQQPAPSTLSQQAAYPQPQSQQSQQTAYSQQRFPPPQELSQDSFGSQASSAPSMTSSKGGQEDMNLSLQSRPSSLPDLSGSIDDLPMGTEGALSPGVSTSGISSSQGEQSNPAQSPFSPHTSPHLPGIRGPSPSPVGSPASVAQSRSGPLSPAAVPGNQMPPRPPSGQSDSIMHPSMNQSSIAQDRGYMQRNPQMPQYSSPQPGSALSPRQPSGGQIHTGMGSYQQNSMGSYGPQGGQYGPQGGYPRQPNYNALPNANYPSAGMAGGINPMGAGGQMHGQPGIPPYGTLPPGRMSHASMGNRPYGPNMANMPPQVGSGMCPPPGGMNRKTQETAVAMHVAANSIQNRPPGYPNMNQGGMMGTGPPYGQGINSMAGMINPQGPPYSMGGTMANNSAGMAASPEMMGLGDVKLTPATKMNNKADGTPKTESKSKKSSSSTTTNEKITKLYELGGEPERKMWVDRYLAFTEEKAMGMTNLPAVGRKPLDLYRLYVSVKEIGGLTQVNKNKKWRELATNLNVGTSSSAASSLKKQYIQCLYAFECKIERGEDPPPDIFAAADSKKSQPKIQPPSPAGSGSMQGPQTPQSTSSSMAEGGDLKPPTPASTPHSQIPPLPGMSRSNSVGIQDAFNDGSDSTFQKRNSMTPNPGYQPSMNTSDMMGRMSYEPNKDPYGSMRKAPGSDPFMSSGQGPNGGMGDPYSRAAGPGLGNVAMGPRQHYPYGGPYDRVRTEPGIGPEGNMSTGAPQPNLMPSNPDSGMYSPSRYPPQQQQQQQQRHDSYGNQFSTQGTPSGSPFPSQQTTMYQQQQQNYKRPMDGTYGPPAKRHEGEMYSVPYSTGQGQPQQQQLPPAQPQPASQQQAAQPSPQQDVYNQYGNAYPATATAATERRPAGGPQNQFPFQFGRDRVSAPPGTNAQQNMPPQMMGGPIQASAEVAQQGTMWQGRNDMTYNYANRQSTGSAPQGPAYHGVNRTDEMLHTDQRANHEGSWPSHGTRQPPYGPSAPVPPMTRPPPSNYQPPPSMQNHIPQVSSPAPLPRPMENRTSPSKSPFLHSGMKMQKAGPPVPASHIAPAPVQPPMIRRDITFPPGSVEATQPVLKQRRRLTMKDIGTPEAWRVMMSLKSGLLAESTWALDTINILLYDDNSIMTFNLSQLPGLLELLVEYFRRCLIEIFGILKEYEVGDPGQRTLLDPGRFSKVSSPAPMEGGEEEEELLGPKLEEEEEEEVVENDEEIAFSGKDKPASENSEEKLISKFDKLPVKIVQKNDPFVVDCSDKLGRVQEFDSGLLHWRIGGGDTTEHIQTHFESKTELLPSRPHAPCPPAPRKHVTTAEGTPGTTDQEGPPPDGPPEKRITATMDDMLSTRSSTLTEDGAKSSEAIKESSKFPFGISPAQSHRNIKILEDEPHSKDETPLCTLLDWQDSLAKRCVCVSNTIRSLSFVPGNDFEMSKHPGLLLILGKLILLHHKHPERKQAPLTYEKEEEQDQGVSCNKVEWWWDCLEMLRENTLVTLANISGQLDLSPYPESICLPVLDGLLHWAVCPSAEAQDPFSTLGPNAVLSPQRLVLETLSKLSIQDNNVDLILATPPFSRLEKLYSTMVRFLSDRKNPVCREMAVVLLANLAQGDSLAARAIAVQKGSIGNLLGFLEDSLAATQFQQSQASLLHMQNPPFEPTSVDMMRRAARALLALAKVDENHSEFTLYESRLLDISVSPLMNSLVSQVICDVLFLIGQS
UniProt P51531: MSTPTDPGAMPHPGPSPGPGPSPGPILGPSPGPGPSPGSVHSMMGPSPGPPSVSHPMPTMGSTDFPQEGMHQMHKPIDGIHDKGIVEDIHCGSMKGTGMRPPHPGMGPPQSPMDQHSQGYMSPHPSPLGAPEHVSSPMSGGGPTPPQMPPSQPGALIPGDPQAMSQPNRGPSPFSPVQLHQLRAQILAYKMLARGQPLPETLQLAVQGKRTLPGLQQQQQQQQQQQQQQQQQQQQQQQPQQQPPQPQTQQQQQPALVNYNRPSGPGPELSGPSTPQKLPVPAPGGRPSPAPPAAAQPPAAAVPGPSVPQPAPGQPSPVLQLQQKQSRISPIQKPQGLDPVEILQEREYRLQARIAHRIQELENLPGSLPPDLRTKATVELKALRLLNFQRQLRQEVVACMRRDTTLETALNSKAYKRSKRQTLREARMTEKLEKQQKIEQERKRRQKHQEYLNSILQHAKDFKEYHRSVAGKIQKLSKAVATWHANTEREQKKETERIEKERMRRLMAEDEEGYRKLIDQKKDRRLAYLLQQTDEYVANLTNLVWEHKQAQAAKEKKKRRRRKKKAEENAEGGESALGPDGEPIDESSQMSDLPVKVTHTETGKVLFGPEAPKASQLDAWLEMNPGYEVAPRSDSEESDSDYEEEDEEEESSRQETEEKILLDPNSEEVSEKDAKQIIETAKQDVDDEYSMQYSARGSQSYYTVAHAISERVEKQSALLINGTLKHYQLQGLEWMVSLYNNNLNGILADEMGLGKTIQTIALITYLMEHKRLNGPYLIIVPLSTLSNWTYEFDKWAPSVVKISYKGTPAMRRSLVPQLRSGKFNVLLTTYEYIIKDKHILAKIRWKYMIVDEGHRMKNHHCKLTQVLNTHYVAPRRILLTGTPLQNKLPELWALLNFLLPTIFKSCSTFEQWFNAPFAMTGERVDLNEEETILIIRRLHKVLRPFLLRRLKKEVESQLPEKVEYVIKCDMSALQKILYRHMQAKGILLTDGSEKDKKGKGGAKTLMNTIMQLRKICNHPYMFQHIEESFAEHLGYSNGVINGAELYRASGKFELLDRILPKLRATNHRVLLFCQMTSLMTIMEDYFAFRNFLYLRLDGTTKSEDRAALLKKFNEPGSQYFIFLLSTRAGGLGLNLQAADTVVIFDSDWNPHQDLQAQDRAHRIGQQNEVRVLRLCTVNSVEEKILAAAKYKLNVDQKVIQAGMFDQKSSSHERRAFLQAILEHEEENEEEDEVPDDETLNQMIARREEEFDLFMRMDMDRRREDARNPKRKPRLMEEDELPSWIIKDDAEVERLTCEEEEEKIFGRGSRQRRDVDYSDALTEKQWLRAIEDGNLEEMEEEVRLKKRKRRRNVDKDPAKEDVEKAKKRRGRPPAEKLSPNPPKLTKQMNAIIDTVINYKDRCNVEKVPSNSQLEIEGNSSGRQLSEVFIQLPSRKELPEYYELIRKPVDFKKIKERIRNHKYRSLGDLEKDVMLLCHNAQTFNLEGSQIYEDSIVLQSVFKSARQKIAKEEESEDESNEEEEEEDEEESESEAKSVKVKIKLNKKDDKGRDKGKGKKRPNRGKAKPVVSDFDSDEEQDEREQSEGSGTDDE
UniProt P51532: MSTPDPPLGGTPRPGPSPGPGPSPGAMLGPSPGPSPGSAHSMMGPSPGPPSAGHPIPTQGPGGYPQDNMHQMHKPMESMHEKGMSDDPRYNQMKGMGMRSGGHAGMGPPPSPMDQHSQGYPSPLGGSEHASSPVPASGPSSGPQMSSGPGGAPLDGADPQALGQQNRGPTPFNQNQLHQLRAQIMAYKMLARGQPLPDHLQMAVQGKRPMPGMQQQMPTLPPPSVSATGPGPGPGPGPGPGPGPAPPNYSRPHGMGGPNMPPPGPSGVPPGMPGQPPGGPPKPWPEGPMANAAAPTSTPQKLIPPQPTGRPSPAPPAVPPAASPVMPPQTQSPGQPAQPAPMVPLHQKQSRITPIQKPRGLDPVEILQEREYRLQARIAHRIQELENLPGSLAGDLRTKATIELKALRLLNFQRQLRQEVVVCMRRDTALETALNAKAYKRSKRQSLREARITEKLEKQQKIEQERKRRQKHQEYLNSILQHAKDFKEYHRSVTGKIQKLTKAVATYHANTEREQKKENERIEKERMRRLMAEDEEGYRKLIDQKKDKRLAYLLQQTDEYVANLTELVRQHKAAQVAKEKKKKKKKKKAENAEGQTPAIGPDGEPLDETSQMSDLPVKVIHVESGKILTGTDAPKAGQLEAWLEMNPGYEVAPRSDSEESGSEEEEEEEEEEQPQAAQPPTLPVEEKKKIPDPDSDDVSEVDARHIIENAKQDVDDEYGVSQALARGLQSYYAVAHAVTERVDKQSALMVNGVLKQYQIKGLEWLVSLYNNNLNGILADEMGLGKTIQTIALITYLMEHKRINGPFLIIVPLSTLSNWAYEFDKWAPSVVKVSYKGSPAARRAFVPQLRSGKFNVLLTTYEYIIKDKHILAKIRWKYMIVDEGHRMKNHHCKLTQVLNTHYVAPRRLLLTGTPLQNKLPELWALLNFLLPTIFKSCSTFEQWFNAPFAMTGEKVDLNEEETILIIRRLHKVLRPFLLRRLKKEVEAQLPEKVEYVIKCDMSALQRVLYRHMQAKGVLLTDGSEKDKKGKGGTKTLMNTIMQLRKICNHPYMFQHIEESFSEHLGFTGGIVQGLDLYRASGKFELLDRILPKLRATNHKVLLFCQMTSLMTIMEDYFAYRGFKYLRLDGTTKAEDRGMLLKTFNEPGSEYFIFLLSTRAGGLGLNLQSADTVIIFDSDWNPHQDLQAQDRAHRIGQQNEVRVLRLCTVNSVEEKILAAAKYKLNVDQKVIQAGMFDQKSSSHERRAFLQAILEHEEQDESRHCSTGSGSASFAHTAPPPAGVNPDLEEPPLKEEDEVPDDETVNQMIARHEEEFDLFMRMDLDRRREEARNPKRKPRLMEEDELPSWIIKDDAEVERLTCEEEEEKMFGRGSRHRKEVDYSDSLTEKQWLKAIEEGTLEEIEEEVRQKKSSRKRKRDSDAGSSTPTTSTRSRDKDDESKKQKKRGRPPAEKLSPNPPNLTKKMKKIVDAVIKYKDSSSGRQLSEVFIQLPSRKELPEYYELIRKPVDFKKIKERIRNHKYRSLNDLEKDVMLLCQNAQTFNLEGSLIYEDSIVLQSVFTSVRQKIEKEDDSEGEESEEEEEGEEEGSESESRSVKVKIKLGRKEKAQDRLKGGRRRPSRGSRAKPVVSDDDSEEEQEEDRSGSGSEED

These are yes or no findings as the source states them, for the method shown. Binding seen in cells or lysates may run through a third protein. Some results given as binding are weak or reduced against the parent protein; the word gives no strength.

For test [1], the target named is KLF4 (human (endogenous in HCC primary spheres)) (UniProt O43474). The test is described as follows: co-IP; HCC primary spheres, co-IP with KLF4 antibody.
For test [2], the target named is ARID1A (human (endogenous in HCC spheres)) (UniProt O14497). Kind of test: co-IP; spheres (S) and non-sphere cells (N) lysed, immunoprecipitation with BAF170 and ARID1A antibodies, BRG1 and BRM by western blotting; also oncosphere lysates with added lncBRM transcripts and lncBRM-depleted spheres. Background: In western blotting, separated proteins are transferred to a membrane and probed.

The target of test [3] is BAF170 (human (endogenous in HCC spheres)) (UniProt Q8TAQ2). The description is as above.

For BRM (from UniProt P51531 1-1590), the binding entry in test [1] is given as “no binding”; in test [2], “binds”; in test [3], “binds”.

On to BRG1 (from UniProt P51532 1-1647), for which the binding entry in test [1], in test [2] and in test [3] was “binds” throughout.
